This is one part of the list.
Compound: CC1Cc2ccccc2N1C(=O)C1CCCN(C1)C(=O)CCl (mixture of isomers) [TRIM25 ligand 11 (diastereomer mixture)]
Experiment: probe-labelled cysteine peptide fold change vs DMSO (competition) (log2 fold change); higher = less target engagement (more negative = stronger competition)
Conditions: THP-1, incubation time: 4 h
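Also: competitive chemoproteomic profiling in live THP-1 cells with an iodoacetamide desthiobiotin (IA-DTB) probe, comparing probe-labelled peptide intensities in compound-treated cells against DMSO-treated controls.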

The chains behind the UniProt entries cited, without tags or fusion partners. Where a name states a change or a piece, a line headed by the entry shows the natural chain unless it says otherwise.
UniProt Q9H7P6: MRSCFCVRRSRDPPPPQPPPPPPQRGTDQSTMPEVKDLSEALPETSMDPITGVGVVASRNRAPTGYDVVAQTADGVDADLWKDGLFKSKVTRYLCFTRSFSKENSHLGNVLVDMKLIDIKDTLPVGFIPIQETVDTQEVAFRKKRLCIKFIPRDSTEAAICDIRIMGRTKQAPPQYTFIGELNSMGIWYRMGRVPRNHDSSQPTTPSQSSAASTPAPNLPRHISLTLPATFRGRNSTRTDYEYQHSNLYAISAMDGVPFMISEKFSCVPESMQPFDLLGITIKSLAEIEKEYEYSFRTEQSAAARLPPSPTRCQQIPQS
UniProt O75592: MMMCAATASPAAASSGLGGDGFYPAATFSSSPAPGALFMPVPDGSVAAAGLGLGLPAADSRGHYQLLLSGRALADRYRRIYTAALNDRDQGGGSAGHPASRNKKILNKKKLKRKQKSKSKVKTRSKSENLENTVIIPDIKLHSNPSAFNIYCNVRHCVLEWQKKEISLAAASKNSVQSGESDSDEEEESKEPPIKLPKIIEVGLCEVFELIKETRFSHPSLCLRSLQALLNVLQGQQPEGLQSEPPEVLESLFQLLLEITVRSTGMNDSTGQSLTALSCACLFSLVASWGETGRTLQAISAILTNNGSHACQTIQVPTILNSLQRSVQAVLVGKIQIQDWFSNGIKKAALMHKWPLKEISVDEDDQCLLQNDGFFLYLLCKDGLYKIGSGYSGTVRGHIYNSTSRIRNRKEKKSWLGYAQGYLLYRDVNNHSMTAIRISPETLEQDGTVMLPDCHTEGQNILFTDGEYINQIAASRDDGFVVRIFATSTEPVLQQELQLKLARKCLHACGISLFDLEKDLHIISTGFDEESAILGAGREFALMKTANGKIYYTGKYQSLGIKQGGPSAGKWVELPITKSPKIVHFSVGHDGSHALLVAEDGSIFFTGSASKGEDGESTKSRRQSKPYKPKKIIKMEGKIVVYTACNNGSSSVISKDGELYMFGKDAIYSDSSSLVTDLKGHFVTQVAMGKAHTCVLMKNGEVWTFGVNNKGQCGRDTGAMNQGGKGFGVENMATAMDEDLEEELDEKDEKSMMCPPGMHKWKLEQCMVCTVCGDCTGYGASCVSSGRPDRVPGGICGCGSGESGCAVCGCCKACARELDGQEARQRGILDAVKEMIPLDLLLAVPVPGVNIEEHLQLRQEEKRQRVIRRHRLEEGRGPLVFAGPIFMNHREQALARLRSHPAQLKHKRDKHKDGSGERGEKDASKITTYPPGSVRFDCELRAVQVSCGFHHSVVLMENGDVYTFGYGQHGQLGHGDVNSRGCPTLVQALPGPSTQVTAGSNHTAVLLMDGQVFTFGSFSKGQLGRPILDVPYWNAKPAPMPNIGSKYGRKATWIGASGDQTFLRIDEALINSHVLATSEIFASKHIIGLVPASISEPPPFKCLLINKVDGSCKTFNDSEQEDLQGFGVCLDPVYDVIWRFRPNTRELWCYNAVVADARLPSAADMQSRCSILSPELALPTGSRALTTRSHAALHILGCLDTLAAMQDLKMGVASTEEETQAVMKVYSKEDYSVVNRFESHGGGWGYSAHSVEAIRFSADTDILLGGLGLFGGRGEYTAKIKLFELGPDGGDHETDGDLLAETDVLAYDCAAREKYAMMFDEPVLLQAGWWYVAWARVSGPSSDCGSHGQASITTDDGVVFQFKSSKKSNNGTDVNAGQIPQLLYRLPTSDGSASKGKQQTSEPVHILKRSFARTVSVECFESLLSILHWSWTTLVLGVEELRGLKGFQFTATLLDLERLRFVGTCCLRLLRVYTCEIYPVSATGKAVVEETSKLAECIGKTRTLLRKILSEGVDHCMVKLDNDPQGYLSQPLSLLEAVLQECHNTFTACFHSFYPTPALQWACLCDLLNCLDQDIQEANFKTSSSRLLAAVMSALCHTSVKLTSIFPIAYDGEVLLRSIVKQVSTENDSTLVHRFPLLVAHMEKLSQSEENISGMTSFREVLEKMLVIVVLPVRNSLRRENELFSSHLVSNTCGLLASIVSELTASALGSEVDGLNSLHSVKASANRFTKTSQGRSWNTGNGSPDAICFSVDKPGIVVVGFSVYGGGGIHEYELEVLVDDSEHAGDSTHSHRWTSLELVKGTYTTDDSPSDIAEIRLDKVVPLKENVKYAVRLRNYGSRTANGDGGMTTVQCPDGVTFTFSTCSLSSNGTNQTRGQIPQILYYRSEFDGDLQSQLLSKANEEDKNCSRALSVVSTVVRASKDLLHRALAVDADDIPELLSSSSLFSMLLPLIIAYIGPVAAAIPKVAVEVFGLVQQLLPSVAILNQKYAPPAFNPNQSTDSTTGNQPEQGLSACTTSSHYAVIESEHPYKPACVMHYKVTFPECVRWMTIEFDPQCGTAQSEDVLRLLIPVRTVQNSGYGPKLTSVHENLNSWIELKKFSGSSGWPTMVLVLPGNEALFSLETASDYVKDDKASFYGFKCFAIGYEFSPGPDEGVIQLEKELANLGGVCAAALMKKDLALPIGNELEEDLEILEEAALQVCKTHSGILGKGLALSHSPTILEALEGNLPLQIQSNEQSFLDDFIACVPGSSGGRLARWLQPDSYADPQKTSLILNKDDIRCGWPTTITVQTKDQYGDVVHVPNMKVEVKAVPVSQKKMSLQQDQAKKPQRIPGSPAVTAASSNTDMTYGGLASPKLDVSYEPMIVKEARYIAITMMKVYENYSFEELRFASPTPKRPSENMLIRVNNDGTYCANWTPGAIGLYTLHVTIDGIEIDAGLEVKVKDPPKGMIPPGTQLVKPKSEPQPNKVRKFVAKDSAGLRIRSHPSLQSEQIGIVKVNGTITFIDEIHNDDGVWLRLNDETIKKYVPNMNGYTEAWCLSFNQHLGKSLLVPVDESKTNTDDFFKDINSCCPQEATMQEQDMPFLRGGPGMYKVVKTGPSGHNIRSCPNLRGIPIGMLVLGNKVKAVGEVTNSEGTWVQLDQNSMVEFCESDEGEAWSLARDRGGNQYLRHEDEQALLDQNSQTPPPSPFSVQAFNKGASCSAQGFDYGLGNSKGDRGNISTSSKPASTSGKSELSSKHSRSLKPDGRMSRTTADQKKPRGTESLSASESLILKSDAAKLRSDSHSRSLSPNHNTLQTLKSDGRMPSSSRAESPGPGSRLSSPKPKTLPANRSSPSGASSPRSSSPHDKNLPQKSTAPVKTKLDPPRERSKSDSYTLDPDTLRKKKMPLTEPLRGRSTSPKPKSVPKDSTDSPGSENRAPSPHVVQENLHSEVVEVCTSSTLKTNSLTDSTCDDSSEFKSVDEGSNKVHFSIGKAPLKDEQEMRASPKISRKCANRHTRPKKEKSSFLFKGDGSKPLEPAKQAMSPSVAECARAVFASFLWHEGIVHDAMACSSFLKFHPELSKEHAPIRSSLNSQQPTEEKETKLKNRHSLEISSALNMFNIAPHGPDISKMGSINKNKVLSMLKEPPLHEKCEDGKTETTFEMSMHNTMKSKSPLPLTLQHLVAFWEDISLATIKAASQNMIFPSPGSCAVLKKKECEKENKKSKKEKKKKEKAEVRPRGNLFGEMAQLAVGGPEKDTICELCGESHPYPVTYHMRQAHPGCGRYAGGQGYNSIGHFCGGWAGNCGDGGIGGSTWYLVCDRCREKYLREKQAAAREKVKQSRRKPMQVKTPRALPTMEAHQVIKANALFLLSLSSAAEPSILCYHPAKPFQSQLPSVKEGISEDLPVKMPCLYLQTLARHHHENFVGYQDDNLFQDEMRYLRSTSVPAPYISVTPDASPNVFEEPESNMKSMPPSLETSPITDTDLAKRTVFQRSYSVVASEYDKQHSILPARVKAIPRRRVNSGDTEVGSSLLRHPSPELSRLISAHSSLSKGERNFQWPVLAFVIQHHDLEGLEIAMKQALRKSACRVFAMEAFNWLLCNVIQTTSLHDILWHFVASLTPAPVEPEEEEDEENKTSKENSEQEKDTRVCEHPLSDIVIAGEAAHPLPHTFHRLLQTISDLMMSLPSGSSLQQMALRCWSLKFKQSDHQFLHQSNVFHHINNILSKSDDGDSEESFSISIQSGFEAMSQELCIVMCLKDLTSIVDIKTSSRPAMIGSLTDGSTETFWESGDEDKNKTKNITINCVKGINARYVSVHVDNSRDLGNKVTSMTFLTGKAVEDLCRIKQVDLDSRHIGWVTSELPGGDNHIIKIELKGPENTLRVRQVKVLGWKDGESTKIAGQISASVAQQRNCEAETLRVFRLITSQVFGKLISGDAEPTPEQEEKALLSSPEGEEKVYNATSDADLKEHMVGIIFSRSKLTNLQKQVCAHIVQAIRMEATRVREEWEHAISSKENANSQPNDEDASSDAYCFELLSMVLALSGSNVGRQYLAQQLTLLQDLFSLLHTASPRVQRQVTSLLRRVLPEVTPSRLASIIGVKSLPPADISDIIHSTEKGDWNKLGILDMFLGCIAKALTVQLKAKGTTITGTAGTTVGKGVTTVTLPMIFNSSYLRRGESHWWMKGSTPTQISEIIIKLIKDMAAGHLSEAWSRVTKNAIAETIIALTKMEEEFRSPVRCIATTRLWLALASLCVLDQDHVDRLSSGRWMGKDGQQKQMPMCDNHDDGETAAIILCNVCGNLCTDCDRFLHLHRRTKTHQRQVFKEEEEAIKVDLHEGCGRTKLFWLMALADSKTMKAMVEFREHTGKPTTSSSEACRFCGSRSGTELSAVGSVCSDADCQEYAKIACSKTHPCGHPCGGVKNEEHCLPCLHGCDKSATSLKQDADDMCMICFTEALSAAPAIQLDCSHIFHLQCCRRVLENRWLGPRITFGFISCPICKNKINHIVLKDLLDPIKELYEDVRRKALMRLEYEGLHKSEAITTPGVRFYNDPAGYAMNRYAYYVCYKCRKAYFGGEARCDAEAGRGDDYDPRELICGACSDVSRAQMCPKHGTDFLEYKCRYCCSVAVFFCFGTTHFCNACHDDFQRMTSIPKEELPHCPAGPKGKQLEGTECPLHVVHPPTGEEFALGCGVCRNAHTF
UniProt Q9BQG0: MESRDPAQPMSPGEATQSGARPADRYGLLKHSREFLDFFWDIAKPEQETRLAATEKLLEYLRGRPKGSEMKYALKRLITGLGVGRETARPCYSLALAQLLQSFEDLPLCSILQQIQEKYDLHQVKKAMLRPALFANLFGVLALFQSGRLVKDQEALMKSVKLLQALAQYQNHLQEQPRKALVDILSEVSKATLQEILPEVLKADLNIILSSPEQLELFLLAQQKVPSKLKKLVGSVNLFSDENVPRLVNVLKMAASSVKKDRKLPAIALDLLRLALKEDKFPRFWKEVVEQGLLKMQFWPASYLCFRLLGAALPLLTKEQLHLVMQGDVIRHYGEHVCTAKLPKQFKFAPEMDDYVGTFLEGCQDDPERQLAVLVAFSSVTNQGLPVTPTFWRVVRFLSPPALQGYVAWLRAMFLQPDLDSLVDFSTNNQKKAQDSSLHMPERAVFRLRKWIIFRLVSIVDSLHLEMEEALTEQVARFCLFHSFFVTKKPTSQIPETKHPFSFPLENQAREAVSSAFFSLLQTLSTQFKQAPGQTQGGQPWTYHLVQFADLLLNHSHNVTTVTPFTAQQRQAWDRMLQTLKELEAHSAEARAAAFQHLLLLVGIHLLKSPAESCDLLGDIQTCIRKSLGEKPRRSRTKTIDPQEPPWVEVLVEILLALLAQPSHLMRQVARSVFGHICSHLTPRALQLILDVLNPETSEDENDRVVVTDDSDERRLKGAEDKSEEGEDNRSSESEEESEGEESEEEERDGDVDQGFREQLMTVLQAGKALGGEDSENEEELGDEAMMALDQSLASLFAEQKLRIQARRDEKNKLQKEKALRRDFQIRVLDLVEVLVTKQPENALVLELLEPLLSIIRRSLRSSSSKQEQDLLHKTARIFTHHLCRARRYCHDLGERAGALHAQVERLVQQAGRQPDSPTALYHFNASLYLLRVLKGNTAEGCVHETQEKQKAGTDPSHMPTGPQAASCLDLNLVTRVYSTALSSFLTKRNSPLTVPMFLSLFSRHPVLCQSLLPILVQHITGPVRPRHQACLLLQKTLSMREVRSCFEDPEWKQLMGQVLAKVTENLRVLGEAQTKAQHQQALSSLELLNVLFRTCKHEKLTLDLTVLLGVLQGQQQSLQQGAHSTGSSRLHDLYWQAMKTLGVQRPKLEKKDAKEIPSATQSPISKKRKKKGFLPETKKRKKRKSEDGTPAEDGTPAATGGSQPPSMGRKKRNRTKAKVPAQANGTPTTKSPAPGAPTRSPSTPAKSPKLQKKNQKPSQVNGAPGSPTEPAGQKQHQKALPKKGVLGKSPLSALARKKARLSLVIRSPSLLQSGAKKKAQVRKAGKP
UniProt Q9Y3D2: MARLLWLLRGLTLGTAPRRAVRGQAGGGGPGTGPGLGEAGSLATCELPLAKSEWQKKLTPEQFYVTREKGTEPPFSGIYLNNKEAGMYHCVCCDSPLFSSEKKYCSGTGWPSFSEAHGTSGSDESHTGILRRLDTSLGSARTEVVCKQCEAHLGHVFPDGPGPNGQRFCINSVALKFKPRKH

| Target | probe-labelled cysteine peptide fold change (10 µM) | probe-labelled cysteine peptide fold change (50 µM) |
| --- | --- | --- |
| MVB12B_Q9H7P6_161_DSTEAAICDIR (UniProt Q9H7P6) | -0.078 | -0.0296 |
| MTSS1L_Q765P7_8_ECGALGGLFQAIVNDMK (UniProt Q765P7) | 0.035 | 0.06 |
| MRPS24_Q96EL2_103_FMWGTFPGCLADQLVLK (UniProt Q96EL2) | 0.183 | 0.203 |
| MYH9_P35579_1379_KMEDSVGCLETAEEVKR (UniProt P35579) | -0.22 | -0.145 |
| MYCBP2_O75592_4558_CDAEAGRGDDYDPR (UniProt O75592) | 0.00177 | 0.143 |
| MTCH1_Q9NZJ7_222_CMVQFVGR (UniProt Q9NZJ7) | 0.102 | 0.0563 |
| MRPS30_Q9NP92_393_NICWGTQSK (UniProt Q9NP92) | -0.11 | 0.013 |
| MTOR_P42345_1214_YDVLICR (UniProt P42345) | -0.0375 | 0.251 |
| MTMR2_Q13614_284_CSQPMVGVSGK (UniProt Q13614) | -0.105 | -0.182 |
| MVB12A_Q96EY5_90_SPLPLGFSPVCDPMDSK (UniProt Q96EY5) | -0.167 | -0.188 |
| MYBBP1A_Q9BQG0_623_SPAESCDLLGDIQTCIR (UniProt Q9BQG0) | 0.0659 | 0.226 |
| MYCBP2_O75592_3051_AVFASFLWHEGIVHDAMACSSFLK (UniProt O75592) | 0.0319 | -0.26 |
| MTMR12_Q9C0I1_694_HHSQQAPQAEAPCLLR (UniProt Q9C0I1) | 0.0716 | -0.26 |
| MTERF3_Q96E29_399_LVSIPDEIFCEEIAK (UniProt Q96E29) | 0.0872 | 0.0199 |
| MTA1_Q13330_281_AISALVPQGGPVLCRDEMEEWSASEANLFEEALEK (UniProt Q13330) | -0.0842 | -0.516 |
| MRPS28_Q9Y2Q9_122+124_FHCVCR (UniProt Q9Y2Q9) | -0.112 | -0.0144 |
| MTMR10_Q9NXD2_70_LICSNFK (UniProt Q9NXD2) | -0.00124 | 0.0561 |
| MSL3_Q8N5Y2_358_HSANCDR (UniProt Q8N5Y2) | -0.0184 | -0.0795 |
| MYBBP1A_Q9BQG0_942_GNTAEGCVHETQEK (UniProt Q9BQG0) | 0.000786 | -0.183 |
| MYCBP2_O75592_938_FDCELR (UniProt O75592) | 0.338 | -0.0525 |
| MSL3P1_P0C860_127_LVQLPCHTNIITILESYVK (UniProt P0C860) | -0.0712 | 0.2 |
| MTREX_P42285_297_QFAEWICHLHK (UniProt P42285) | -0.00494 | 0.111 |

| Target | probe-labelled cysteine peptide fold change (10 µM) | probe-labelled cysteine peptide fold change (50 µM) |
| --- | --- | --- |
| MTHFSD_Q2M296_184_ETPVVTIVHDCQVVDIPEELVEEHDITVDYILTPTR (UniProt Q2M296) | 0.271 | 0.127 |
| MTOR_P42345_1593_AYGAMVSCHMLSELEEVIQYK (UniProt P42345) | 0.161 | -0.237 |
| MTF2_Q9Y483_219_MLQCCK (UniProt Q9Y483) | 0.0912 | 0.106 |
| MUT_P22033_471_IEECAAR (UniProt P22033) | 0.228 | -0.104 |
| MYEF2_Q9P2K5_546_FSQCGHVMFAEIK (UniProt Q9P2K5) | 0.0506 | -0.13 |
| MSRB2_Q9Y3D2_169_FCINSVALK (UniProt Q9Y3D2) | -0.0842 | 0.0432 |
| MYBBP1A_Q9BQG0_884_IFTHHLCR (UniProt Q9BQG0) | 0.0154 | 0.0898 |
| MTFR2_Q6P444_50_MLPLEPCR (UniProt Q6P444) | -0.0301 | 0.00323 |
| MTMR3_Q13615_151_EQHGDLCRPGEHVTSR (UniProt Q13615) | 0.123 | 0.0462 |
| MUS81_Q96NY9_16_KRPLPACPNPLFVR (UniProt Q96NY9) | -0.0623 | -0.121 |
| MSRB2_Q9Y3D2_149_QCEAHLGHVFPDGPGPNGQR (UniProt Q9Y3D2) | -0.109 | -0.0388 |
| MRPS18A_Q9NVS2_186_DNVCYSR (UniProt Q9NVS2) | 0.0628 | 0.0306 |
| MRPS30_Q9NP92_316_QNCADQIEVVFR (UniProt Q9NP92) | 0.0482 | 0.324 |
| MSH6_P52701_1158_QAGLLAVMAQMGCYVPAEVCR (UniProt P52701) | 0.132 | -0.075 |
| MTREX_P42285_399_DCEAYALQMTK (UniProt P42285) | -0.0173 | 0.124 |
| MTG1_Q9BT17_51_LVDCIIEVHDAR (UniProt Q9BT17) | -0.00657 | 0.11 |
| MYH9_P35579_740_QACVLMIK (UniProt P35579) | -0.0491 | 0.183 |
| MTMR1_Q13613_507_VGHGNDNHADADRSPIFLQFVDCVWQMTR (UniProt Q13613) | 0.0376 | 0.196 |
| MYH10_P35580_176_CMLQDREDQSILCTGESGAGK (UniProt P35580) | 0.176 | 0.39 |
| MRPS22_P82650_231_HVDVLNLCFAQFEPDSTEYIK (UniProt P82650) | -0.199 | -0.125 |
| MYCBP2_O75592_3241_DTICELCGESHPYPVTYHMR (UniProt O75592) | 0.0135 | -0.0261 |
| MRPS16_Q9Y3D3_26_LALGGCTNRPFYR (UniProt Q9Y3D3) | -0.227 | -0.0358 |

| Target | probe-labelled cysteine peptide fold change (10 µM) | probe-labelled cysteine peptide fold change (50 µM) |
| --- | --- | --- |
| MTHFD1_P11586_147_GDLNDCFIPCTPK (UniProt P11586) | -0.159 | -0.129 |
| MTA1_Q13330_281_AISALVPQGGPVLCR (UniProt Q13330) | 0.116 | 0.139 |
| MRPS30_Q9NP92_204_CPVHFYWVR (UniProt Q9NP92) | 0.0926 | 0.276 |
| MYBL2_P10244_147_SCWTEEEDRIICEAHK (UniProt P10244) | -0.107 | 0.0609 |
| MYH9_P35579_569_ADFCIIHYAGK (UniProt P35579) | 0.114 | 0.0759 |
| MRTO4_Q9UKD2_176_RGVVTLLSDYEVCK (UniProt Q9UKD2) | 0.091 | -0.0317 |
| MTMR10_Q9NXD2_707_SGPLEACYGELGQSR (UniProt Q9NXD2) | 0.0162 | 0.141 |
| MX2_P20592_407_CGADIPSQEADK (UniProt P20592) | 0.0322 | -0.0749 |
| MRPS16_Q9Y3D3_79_HWIGCGAHLSK (UniProt Q9Y3D3) | 0.097 | -0.036 |
| MRPS35_P82673_130_DFCTEWPAALDSDEK (UniProt P82673) | -0.00899 | 0.0431 |
| MTHFD1L_Q6UB35_198_GDAHECFVSPVAK (UniProt Q6UB35) | 0.0264 | 0.007 |
| MSH6_P52701_406_RPDHPDFDASTLYVPEDFLNSCTPGMR (UniProt P52701) | 0.154 | 0.165 |
| MRPS18C_Q9Y3D5_100_HITGLCGK (UniProt Q9Y3D5) | -0.114 | -0.331 |
| MVD_P53602_267_DSNQFHATCLDTFPPISYLNAISWR (UniProt P53602) | -0.239 | -0.303 |
| MVP_Q14764_515_RALCLLLGPDFFTDVITIETADHAR (UniProt Q14764) | -0.253 | -0.119 |
| MTR_Q99707_798_NIVGVVLGCNNFR (UniProt Q99707) | 0.164 | 0.109 |
| MTMR10_Q9NXD2_104_NLLLGEHDVPLTCIEQIVTVNDHK (UniProt Q9NXD2) | 0.158 | 0.0385 |
| MSH2_P43246_843_HVIECAK (UniProt P43246) | 0.0187 | 0.0469 |
| MTF2_Q9Y483_133_CGQGYHQLCHTPHIDSSVIDSDEK (UniProt Q9Y483) | 0.12 | 0.228 |
| MYH9_P35579_569_DKADFCIIHYAGK (UniProt P35579) | -0.15 | -0.15 |
| MRPS6_P82932_105_ECEGIVPVPLAEK (UniProt P82932) | 0.00533 | -0.147 |
| MTPAP_Q9NVV4_299_ILSVLGECLDHFGPGCVGVQK (UniProt Q9NVV4) | -0.0551 | 0.0135 |

| Target | probe-labelled cysteine peptide fold change (10 µM) | probe-labelled cysteine peptide fold change (50 µM) |
| --- | --- | --- |
| MRPS9_P82933_233_LLTSQCGAAEEEFVQR (UniProt P82933) | 0.0323 | -0.0172 |
| MSH2_P43246_822_GVCDQSFGIHVAELANFPK (UniProt P43246) | -0.0423 | 0.0132 |
| MSH6_P52701_426_SQNFDLVICYK (UniProt P52701) | 0.456 | 0.537 |
| MRPS7_Q9Y2R9_152_NCEPMIGLVPILK (UniProt Q9Y2R9) | -0.00514 | 0.0373 |
| MSH2_P43246_641_HACVEVQDEIAFIPNDVYFEK (UniProt P43246) | 0.0508 | 0.0552 |
| MTHFD1_P11586_143_GDLNDCFIPCTPK (UniProt P11586) | 0.0612 | -0.0554 |
| MYADM_Q96S97_279_SRDVSCSR (UniProt Q96S97) | 1.04 | 1.29 |
| MTMR12_Q9C0I1_53_EVTLHLLPGEQLLCEASTVLK (UniProt Q9C0I1) | -0.0998 | -0.173 |
| MYCBP2_O75592_4544_YAYYVCYK (UniProt O75592) | 0.0433 | -0.0266 |
| MUM1_Q2TAK8_548_GSPEEPVVGCPLGQR (UniProt Q2TAK8) | 0.0492 | -0.156 |
| MRPL53_Q96EL3_49_STNLNCSVIADVR (UniProt Q96EL3) | 0.0678 | 0.0614 |
| MYCBP2_O75592_4669+4672_QLEGTECPLHVVHPPTGEEFALGCGVCR (UniProt O75592) | -0.229 | -0.193 |
| MYBPH_Q13203_437_ALSEQGVCTLEIR (UniProt Q13203) | 0.192 | 0.136 |
| MTHFD1_P11586_326_SCKPKPIGK (UniProt P11586) | -0.35 | -0.425 |
| MSH6_P52701_579_FFIGQFSDDRHCSR (UniProt P52701) | -0.129 | 0.033 |
| MSH6_P52701_1158+1165_QAGLLAVMAQMGCYVPAEVCR (UniProt P52701) | -0.115 | -0.66 |
| MTHFD1L_Q6UB35_778_EYTEENIQLVADGCCNLQK (UniProt Q6UB35) | -0.0331 | -0.0422 |
| MYBBP1A_Q9BQG0_338_HYGEHVCTAK (UniProt Q9BQG0) | 0.0577 | 0.121 |
| MYD88_Q99836_203_LCVSDRDVLPGTCVWSIASELIEKR (UniProt Q99836) | -0.217 | -0.0311 |

From the supplement of paper PMC12067093, “Discovery and optimisation of a covalent ligand for TRIM25 and its application to targeted protein ubiquitination” (Chemical Science, 2025)
